# Measured values: PubChem BioAssay AID540256 (National Center for Advancing Translational Sciences (NCATS), 2011)
# Among all 300,000 compounds or so, about 3,700 (1.2%) were called active. Inconclusive means that the source gave no clear call. Such entries were picked first, then a sample of the others. The call rests on the fitted dose curve; tested in HEK293 cells. Potencies of inconclusive entries are doubtful fits and often do not repeat.
# Test: qHTS for Inhibitors of binding or entry into cells for Lassa Virus; further: nearly all actives have a fitted effect of over 50% in size
# Conditions: Lassa virus pseudotype entry inhibition, cell reporter; series mostly up to 37.9 µM
# Potency means the concentration at half of the fitted maximal effect.
row,SMILES,Potency
1,COc1ccc(-c2onc(C)c2C)cc1S(=O)(=O)N1CCc2ccccc21,inactive
2,Cc1noc(C)c1S(=O)(=O)Nc1ccc(C(=O)Nc2ccc(C(C)C)cc2)cc1,"inconclusive: 35.5 µM [inhibitor, single point]"
3,CCC1Cc2c(nc(N)c3c(N)nc(N4CCCCC4)c(C#N)c23)O1 (stereo unspecified),"inconclusive: 22.4 µM [inhibitor, single point]"
4,CCNc1ccc(C(=O)Nc2ccc3nc(C)sc3c2)cc1[N+](=O)[O-],inactive
5,C1CN(c2nc3nonc3n3nnnc23)CCO1,inactive
6,COc1ccc(C(=O)Nc2cccc(/C(C)=N\NC(=O)c3ccoc3C)c2)cc1OC,"inconclusive: 7.94 µM [inhibitor, partial curve]"
7,COc1ccc(OC)c(/C=C2\SC(N3CCCC(C)C3)=NC2=O)c1 (stereo unspecified),"inconclusive: 10 µM [inhibitor, partial curve, poor fit]"
8,COc1ccc2oc(C(=O)OCC(=O)N(CCC#N)c3ccccc3)c(C)c2c1,inactive
9,CCn1c(N2CCN(S(=O)(=O)c3ccccc3C(F)(F)F)CC2)nc2ccccc21,"inconclusive: 11.2 µM [inhibitor, single point]"
10,S=C(NC1CCCCC1)N1CCc2ccccc2C1,inactive
11,Cc1cc(C(=O)O)ccc1-n1c(C)cc(/C=C(/C#N)C(=O)Nc2ccccc2)c1C,"inconclusive: 2.51 µM [inhibitor, full curve]"
12,CN1C(=O)C(O)(CC(=O)c2cccnc2)c2ccccc21 (stereo unspecified),inactive
13,O=C(C[C@H]1C(=O)N(Cc2ccccc2)C[C@@H]1Cc1ccccc1)Nc1ccc(Br)cc1,"inconclusive: 11.2 µM [inhibitor, full curve, poor fit]"
14,COc1ccc(/C=C/C(=O)O)cc1S(=O)(=O)NCc1ccco1,inactive
15,O=C(NCc1ccccc1F)c1ccc2ccccc2n1,"inconclusive: 10 µM [inhibitor, partial curve]"
16,COc1ccc(NC(=O)C(NC(=O)Cc2cccs2)c2ccc(OC)cc2)cc1 (stereo unspecified),"inconclusive: 1.78 µM [inhibitor, full curve, poor fit]"
17,CCCOP(=O)(OCCC)c1nc(-c2ccccc2)oc1NCc1ccccc1,"inconclusive: 10 µM [inhibitor, partial curve, poor fit]"
18,O=C(N/N=C/c1ccc2c(c1)OCO2)/C(=C/c1ccc2c(c1)OCO2)NC(=O)c1ccccc1,"inconclusive: 2 µM [inhibitor, full curve]"
19,Cc1cccc(N2CCN(C(=O)c3cn(C)c4ccc(S(=O)(=O)N(C)C)cc4c3=O)CC2C)c1 (stereo unspecified),inactive
20,CCc1ccc(CNC(=O)c2ccc(CS(=O)c3ccc(Br)cc3)o2)cc1 (stereo unspecified),"inconclusive: 6.31 µM [inhibitor, single point]"
21,CCc1nnc(SCC(=O)Nc2ccc(Cl)cc2F)c2cc3occc3n12,"inconclusive: 12.6 µM [activator, single point]"
22,COc1ccc(NC2=C(NC(C)=O)C(=O)c3ccccc3C2=O)cc1,"inconclusive: 35.5 µM [inhibitor, single point]"
23,COc1cc([N+](=O)[O-])cc(/C=N/NC(=O)c2ccc(NC(=O)c3ccc(C)cc3)cc2)c1O,"inconclusive: 1.12 µM [inhibitor, full curve, poor fit]"

# Another view of some results above:
row	SMILES	Potency
21	CCc1nnc(SCC(=O)Nc2ccc(Cl)cc2F)c2cc3occc3n12	inconclusive: 12.6 µM [activator, single point]
22	COc1ccc(NC2=C(NC(C)=O)C(=O)c3ccccc3C2=O)cc1	inconclusive: 35.5 µM [inhibitor, single point]

# Later entries

row,SMILES,Potency
1,CCc1ccc(-n2c(SCc3nc(-c4cc(OC)ccc4OC)no3)nnc2-c2ccccc2)cc1,"inconclusive: 3.98 µM [inhibitor, partial curve, poor fit]"
2,COc1ccc(C2=CC(c3ccccc3Cl)n3nc(-c4ccc(C)cc4)nc3N2)cc1 (stereo unspecified),inactive
3,OCCN1CCN(CC(O)COc2ccc(C34CC5CC(CC(C5)C3)C4)cc2)CC1 (stereo unspecified),"inconclusive: 22.4 µM [inhibitor, single point]"
4,Cn1c(=O)n(C)c2cc(NS(=O)(=O)c3ccc(C(C)(C)C)cc3)ccc21,"inconclusive: 10 µM [inhibitor, partial curve, poor fit]"
5,COc1ccc(CCNC(=O)COc2nncc3ccccc23)cc1,inactive
6,O=C(NC1CCCCCC1)c1c2c(nc3ccccc13)CCN(Cc1ccccc1)C2,inactive
7,CCOc1ccccc1N(CC(=O)NCC1CCCO1)C(=O)CCC(=O)Nc1cc(C)on1 (stereo unspecified),"inconclusive: 1.26 µM [inhibitor, single point]"
8,CC(=O)c1cnc(Nc2nc(C)c3cc(C)c(C)cc3n2)nc1C,inactive
9,COc1ccc(-c2csc3ncnc(N4CCN(c5ccccc5Cl)CC4)c23)cc1,inactive
10,CCC12CN3CC(CC)(CN(C1)C3c1cccc(OC)c1O)C2=O (stereo unspecified),inactive
11,COc1cc2c(cc1NC(=O)COc1ccc(Br)c(C)c1)oc1ccccc12,"inconclusive: 6.31 µM [activator, single point]"
12,COc1ccccc1NC(=O)c1ccc(NC(=O)CN(C)Cc2ccccc2F)cc1,"inconclusive: 11.2 µM [inhibitor, partial curve]"
13,Cc1ccc2nc(NCc3ccccc3)[nH]c2c1,"inconclusive: 7.94 µM [inhibitor, partial curve, poor fit]"
14,Clc1ccc(CN2C3=NCCCN3c3ccccc32)c(Cl)c1,"inconclusive: 35.5 µM [inhibitor, single point]"
15,O=C(CCCC(=O)Nc1ccccc1Br)N/N=C/c1c(F)cccc1Cl,inactive
16,Cc1ccc(S(=O)(=O)N(C)c2ccc(C(=O)N3CCCCC3)cc2)cc1,inactive
17,Cc1nc(SCC(=O)N2CC(=O)Nc3ccccc32)nc(C)c1C,inactive
18,O=C(O)CSCC(=O)Nc1ccc(C2CCCCC2)cc1,"inconclusive: 7.94 µM [inhibitor, partial curve]"
19,CC1CN(CCOc2ccccc2-c2ccccc2)CC(C)O1 (stereo unspecified),"inconclusive: 13 µM [inhibitor, partial curve, poor fit]"
20,CN1C(=O)N(C)C(=O)C2(Sc3ccccc3C2=O)C1=O,inactive
21,COc1cc(NC(=S)Nc2cccnc2)cc(OC)c1OC,inactive
22,O=C(c1ccc2c(c1)OCCCO2)c1cccs1,"inconclusive: 1.46 µM [activator, partial curve]"
23,CCN1CCN(c2ncc(C(=O)Nc3cc(Cl)ccc3OC)c3ccccc23)CC1,"inconclusive: 20 µM [inhibitor, partial curve, poor fit]"
